In publication doi:10.1101/2025.06.05.658052 (bioRxiv, 2025):

Target: T1, His-tagged A. baumannii RecA (Acinetobacter baumannii) (UniProt A3M645)
T1 sequence: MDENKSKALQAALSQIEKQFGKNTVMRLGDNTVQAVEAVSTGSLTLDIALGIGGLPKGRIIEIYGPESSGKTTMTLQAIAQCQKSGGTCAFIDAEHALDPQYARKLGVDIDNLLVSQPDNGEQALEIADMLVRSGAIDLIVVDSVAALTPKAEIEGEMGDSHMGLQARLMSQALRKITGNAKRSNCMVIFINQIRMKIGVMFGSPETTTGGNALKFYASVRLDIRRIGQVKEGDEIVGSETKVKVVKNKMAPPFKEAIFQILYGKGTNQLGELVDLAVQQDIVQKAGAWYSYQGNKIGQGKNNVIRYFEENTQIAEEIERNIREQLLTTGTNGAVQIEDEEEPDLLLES
Assay: SEC

For “EppR (error-prone polymerase regulator), purified (Acinetobacter baumannii)”, the binding was “binds”.

No constants are given. Whether binding was seen depends on the method and setting. Binding calls can cover weak binding; strength is not graded here. Sequences can lack the tags named with a protein.
